{"source": "patent US7078222B2", "about": "“Microorganism for producing riboflavin and method for producing riboflavin using the same” (CJ Corp., priority 2002, dated 2006)", "tested_on": "Bacillus subtilis CJKB0002 (KCCM-10446)", "assay": "Evaluation of resistance against DL-β-hydroxynorvaline (growth in DL-β-hydroxynorvaline-containing minimal medium)", "assay_type": "cell-based", "parameters": "key to the marks not given beside the values", "details": "30° C., 5 days", "description": "In this example, in order to evaluate resistance to DL-β-hydroxynorvaline, the Bacillus subtilis CJKB0002 (KCCM-10446) of Example 1 and the Bacillus subtilis AS5 as the parent strain were cultured in various concentrations of DL-β-hydroxynorvaline-containing media. In detail, respective strains were inoculated onto DL-β-hydroxynorvaline-containing media as shown in Table 1 and cultured at 30° C. for 5 days. In this case, the concentration of DL-β-hydroxynorvaline ranged from 0 to 350 mg/l.", "note": "For at least one compound, name, drawing or mass did not settle the structure.", "data": [{"smiles": "CCC(O)C(N)C(=O)O", "note": "(racemic) [DL-β-hydroxynorvaline]", "values": [{"measurement": "growth of strain", "setting": "50 mg/l DL-β-hydroxynorvaline", "result": "+++"}, {"measurement": "growth of strain", "setting": "100 mg/l DL-β-hydroxynorvaline", "result": "+++"}, {"measurement": "growth of strain", "setting": "200 mg/l DL-β-hydroxynorvaline", "result": "++"}]}]}
